This is an account of results in US7550431B2, “Spatially-defined macrocycles incorporating peptide bond surrogates” (Tranzyme Pharma Inc., priority 2003, dated 2009).

The chains behind the UniProt entries cited, without tags or fusion partners.
UniProt O43193, whole entry: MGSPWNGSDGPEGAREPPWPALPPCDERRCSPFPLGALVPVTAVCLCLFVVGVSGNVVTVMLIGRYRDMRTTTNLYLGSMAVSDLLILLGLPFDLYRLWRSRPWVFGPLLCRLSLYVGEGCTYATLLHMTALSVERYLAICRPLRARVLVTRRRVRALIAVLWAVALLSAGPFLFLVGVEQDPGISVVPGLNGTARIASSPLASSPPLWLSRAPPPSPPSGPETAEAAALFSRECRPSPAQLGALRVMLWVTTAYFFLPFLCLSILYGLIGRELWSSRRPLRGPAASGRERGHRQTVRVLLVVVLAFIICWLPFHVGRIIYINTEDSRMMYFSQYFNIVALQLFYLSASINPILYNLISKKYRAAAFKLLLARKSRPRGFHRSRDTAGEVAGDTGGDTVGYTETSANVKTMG

As a reminder, the Ki is a measure of affinity in units of concentration, obtained from inhibition or displacement.

The assay deals with human motilin receptor (Homo sapiens, UniProt O43193). The assay can be described thus: Competitive radioligand binding assay (motilin receptor), Method B1. The settings on record: read-out: Binding Activity [Ki (nM)], [125I]-motilin competition, CHO cell membranes.

Structures were worked out from names or drawings and are uncertain.

`CC(C)[C@H]1CC[C@@H](Cc2cccc(Cl)c2)NCCOc2ccccc2CCCNC(=O)[C@H](CN(C)C)NC1=O`: the Ki was 100 to 1000 nM.
